Consider 78 substances from the supplement of paper PMC5949888.

Most values lie at the floor of the assay. Slopes are relative: functional sequences can read slightly below zero.

The series concerns Saccharomyces cerevisiae PS128 hsf1 delta, HSF1(1-493) fusion. Nature of the series: growth estimate (transactivation domain function in HSF1 fusion, heat-shock survival) (a.u. (slope of normalised read count over time)); higher = stronger growth at 37°C, i.e. more transactivation activity. The conditions noted are these: library: random library.
Take ILRFEGMLWIQLLELFGCPN: the growth estimate was < -0.25.

As for VGVMVRTGRRDDK, the growth estimate is < -0.25.

As for IMCGSARKYVGGGLCQYMPR, the growth estimate was < -0.25.

Turning to VRTRTVI, the growth estimate is < -0.25.

As for QLYRKS, the growth estimate was < -0.25.

On to HLAVAGGDGEGVDMPSVTCL, for which the growth estimate was < -0.25.

For the substance LTEPDG, the growth estimate was < -0.25.

As to GSHSGKEALSFLSC, the growth estimate was < -0.25.

Regarding LSQESLGISSLRHLGHLPPS, the growth estimate is < -0.25.

Regarding ITVCNANLYQWPRGDC, the growth estimate is < -0.25.

TQLIAGGPYEGSRNSKRAGR: the growth estimate is < -0.25.

As to RWAKDRTGKLWMGASGKKMC, the growth estimate was < -0.25.

In the case of QERPVQWVSGSGLRLGTGCT, the growth estimate is < -0.25.

Take RCHLGRGALREFERI: the growth estimate is -0.219.

Turning to GGQRTAQRIAW, the growth estimate is < -0.25.

For the substance AANGEIGSYADVRLPWRRPN, the growth estimate was < -0.25.

As to ALCSLRTRSMKTVRREQFFN, the growth estimate was < -0.25.

As for NVPSRAADNYRTEGNIPSTL, the growth estimate is < -0.25.

For VTFL, the growth estimate was < -0.25.

As to ECVCGYSLEPSWC, the growth estimate is -0.0376.

Turning to KYSERG, the growth estimate is < -0.25.

Take EAMKATVAR: the growth estimate was < -0.25.

Regarding VLMRLLGVRASMKRECHRNA, the growth estimate is < -0.25.

As to IRRPFSPDRGLLAWYLEICV, the growth estimate was < -0.25.

As for LGLRQLTSLQIQTEPDARRS, the growth estimate was < -0.25.

As to ASVRTEVSPVWGASTVDYGL, the growth estimate was < -0.25.

As for TSVCCRVTSASWANYSLAYD, the growth estimate was -0.25.

For the substance LCSRGNSLM, the growth estimate was < -0.25.

As for LTPGSANRLVDI, the growth estimate was < -0.25.

Turning to SIYRPRVWGPEDLNRNQLRS, the growth estimate is < -0.25.

As to GIR, the growth estimate is < -0.25.

Turning to ALEICMNKHTGY, the growth estimate was < -0.25.

In the case of VKQSGLSNG, the growth estimate is < -0.25.

As for GYRIGT, the growth estimate is < -0.25.

For the substance ACVGRPPGCSINCGT, the growth estimate was -0.243.

Consider ITVEERRVRYL, for which the growth estimate was < -0.25.

For TAPNRVDLNVENAV, the growth estimate was < -0.25.

As for FIRCHGRTKA, the growth estimate is < -0.25.

Turning to DCIESVNVPHLLR, the growth estimate is < -0.25.

Consider RFVRGNRLRLG, for which the growth estimate was < -0.25.

For the substance IGRHGSNSPRRSDGQTDY, the growth estimate was < -0.25.

Regarding IKVNLARYFWCLS, the growth estimate is < -0.25.

Consider KGEDCPHENGSRLTN, for which the growth estimate was < -0.25.

Regarding NLEGLPGIP, the growth estimate was -0.134.

Regarding HGPCSFNVSFFVGFLQRICA, the growth estimate was < -0.25.

Turning to DRAGANDLAGGHQLLAEFYL, the growth estimate is < -0.25.

In the case of PRRNRPTRLPQLSRPSRTRA, the growth estimate is < -0.25.

For GVGLRGCGGAFHDFVTSYGE, the growth estimate was < -0.25.

AEGYAILNSGYQWQLINGDG: the growth estimate is < -0.25.

GYRHASEVLARHS: the growth estimate is < -0.25.

For the substance NNNRLSPR, the growth estimate is < -0.25.

Consider PQWVNSGTSTPNALLAGGNG, for which the growth estimate was < -0.25.

QNGTHE: the growth estimate was < -0.25.

On to ILHYEIGSRVTPSSGLLVFC, for which the growth estimate was < -0.25.

With YPLASNTVMQAVDQQRTLQR, the growth estimate was < -0.25.

For LMSERSGQIGIMGATHLDRQ, the growth estimate is < -0.25.

For the substance GFSKVASLLRCSFRPLGAQP, the growth estimate is < -0.25.

Consider AYKHCWINPQNATAKDKFSL, for which the growth estimate was < -0.25.

On to DRTEPRVCDVR, for which the growth estimate is < -0.25.

As for DCERVSMGTCPGECAHAGSS, the growth estimate is < -0.25.

For VSLSEDHGGAARVFRAVAEL, the growth estimate is < -0.25.

Regarding SSNV, the growth estimate is < -0.25.

ENPTPSGAHVLSGSFVLRFR: the growth estimate was < -0.25.

Take GLTPNRFYWEIAAGLLGYQH: the growth estimate is < -0.25.

Take GINLFKVRYMRARTCNAKPD: the growth estimate was < -0.25.

For the substance PALQGVNR, the growth estimate is < -0.25.

Regarding LYPVVRSCPWWGGKYQSLRC, the growth estimate is < -0.25.

Turning to CLDSDRPAQD, the growth estimate was < -0.25.

For the substance ATYSV, the growth estimate was < -0.25.

Consider HILKMGSTVIFAPRPTRWRY, for which the growth estimate is < -0.25.

With KAYCVSLGL, the growth estimate is < -0.25.

QVDRAVLGRGIFYSPALTIS: the growth estimate is < -0.25.

On to PGDSSVGSPLNIRQFPSLVT, for which the growth estimate was < -0.25.

Regarding RPSSWVNFSRRTGHGLEHSM, the growth estimate is < -0.25.

For ATSSRPLERMLVLTSPFVRA, the growth estimate was < -0.25.

On to LCVRKG, for which the growth estimate is < -0.25.

On to RTGLGNHQKFQFVERN, for which the growth estimate was -0.246.

Take LCSARHSSKQGCKGTLSSPK: the growth estimate is < -0.25.
